PubChem BioAssay AID1224827, NIAID, 2016
In all, the deposit lists about 3,800 reagents; shown is an unselected part. Of all reagents, about 2,200 (57%) are marked active. 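Active means a strong reporter change in either direction; calls are per siRNA, not per gene; qiagen siRNAs gave weaker effects.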 Unmarked entries are inactive. The numbers tell different reagents against one gene apart. Further read-outs or replicates are left out here.

- Purpose: 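Confirm genes whose knock-down changes LPS-driven TNF promoter activity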 (follow-up of hits)
- System: RAW264.7 G9 mouse macrophage reporter clone
- Knock-down reagent: single siRNA against mouse genes, 100 nM siRNA
- Duration: siRNA for 2 days, then LPS about 16 h
- Challenge: bacterial lipopolysaccharide (LPS), 10 ng/ml, cells fixed after overnight (about 16 h) stimulation
- Detection: 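TNF promoter reporter red fluorescence in nuclei, background subtracted, normalised per plate and to non-targeting control siRNA, as z-scores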
- Scale: TNF reporter z-score, mean: higher = stronger Tnf promoter reporter signal
- Call rule: 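An siRNA is called active when its mean z-score over replicates is at least +2 or at most -2; control wells get no call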

TNF reporter z-score, mean, by gene and reagent
Pop7: #1 0.546; #2 -2.2 (active); #3 -3.43 (active); #4 2.87 (active); #5 -0.947; #6 -1.32
Rdh16f2 (RDH16 family member 2): #1 6.56 (active); #2 -3.4 (active); #3 -4.36 (active); #4 1.19; #5 -0.0595; #6 -0.638
Fasl (Fas ligand): #1 -3.34 (active); #2 -4 (active); #3 -4.18 (active); #4 5.66 (active); #5 1.45; #6 -1.71
Ucp2: #1 1.62; #2 -2.01 (active); #3 -2.71 (active); #4 3.85 (active); #5 1.89; #6 0.419
Slc25a14: #1 -2.85 (active); #2 -3.72 (active); #3 -4.21 (active); #4 3.14 (active); #5 1.81; #6 -1.11
Ttf2 (transcription termination factor, RNA polymerase II): #1 1.65; #2 -4.77 (active); #3 -5.74 (active); #4 1.21; #5 1.67; #6 -0.346

Reprinted from the listing (8 entries):
TNF reporter z-score, mean, by gene and reagent
Pop7: #3 -3.43 (active); #4 2.87 (active); #5 -0.947; #6 -1.32
Rdh16f2 (RDH16 family member 2): #1 6.56 (active); #2 -3.4 (active); #3 -4.36 (active); #4 1.19

The list goes on.
TNF reporter z-score, mean, by gene and reagent
Gata3 (GATA binding protein 3): #1 -0.546; #2 -2.91 (active); #3 -4.39 (active); #4 4.65 (active); #5 2.27 (active); #6 -1.06
Ap1g2 (adaptor protein complex AP-1, gamma 2 subunit): #1 -4.81 (active); #2 -6.24 (active); #3 -6.49 (active); #4 1.8; #5 -1.22; #6 -1.89
Kras (Kras proto-oncogene, GTPase): #1 4.56 (active); #2 -0.969; #3 -3.76 (active); #4 0.392; #5 -0.216; #6 -1.12
Cyp4a10 (cytochrome P450, family 4, subfamily a, polypeptide 10): #1 -3.48 (active); #2 -4.04 (active); #3 -4.87 (active); #4 4.32 (active); #5 4.14 (active); #6 -2.45 (active)
Sdk1 (sidekick cell adhesion molecule 1): #1 -1.94; #2 -4.23 (active); #3 -4.76 (active); #4 2.56 (active); #5 -1.08; #6 -4.24 (active)
Tuba3b (tubulin, alpha 3B): #1 -2.24 (active); #2 -2.76 (active); #3 -2.99 (active); #4 2.45 (active); #5 2.06 (active); #6 0.43
Hopx (HOP homeobox): #1 -3.39 (active); #2 -3.68 (active); #3 -3.84 (active); #4 3.84 (active); #5 1.36; #6 -2.43 (active)
